Results deposited as PubChem BioAssay AID1159578 (Peter MacCallum Cancer Centre, 2015).

- Screen: 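siRNA pools altering how lymphatic endothelial cells close a scratch wound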 (primary screen)
- Cells: human lymphatic endothelial cells
- Knock-down reagent: siRNA pool against human genes, 40 nM
- Timing: 48 h after transfection
- Measurement: 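Cells stained with dye and imaged after a scratch; covered wound area and nuclei counted, duplicates averaged, migration set against mock wells and turned into a robust z-score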
- Scale: migration robust z-score: higher = faster migration into the scratch; nuclei per well: higher = more cells in the well
- Call rule: 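Pools averaging fewer than 3300 nuclei are never called; remaining pools count as changed when migration robust z lies outside -2 to 2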
- Meaning of the calls: active = migration changed; inactive = no migration change, or too few cells
In all, the deposit lists about 18,000 reagents; below is a part drawn at random. About 1,030 of all reagents (5.7%) count as active. 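Inactive calls also include pools with fewer than 3300 nuclei, whose migration was not assessed.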 Raw values are not corrected between plates. Not all columns of the deposit are shown.

gene symbol	migration robust z-score	migration class with cell-count check	nuclei per well, duplicate mean	outcome
EIF4G1 (eukaryotic translation initiation factor 4 gamma 1)	0.7	migration z between -2 and 2; enough cells	5410	inactive
INPP5K (inositol polyphosphate-5-phosphatase K)	-0.57	migration z between -2 and 2; enough cells	4883	inactive
FUNDC1 (FUN14 domain containing 1)	0.07	migration z between -2 and 2; enough cells	5663	inactive
THAP1 (THAP domain containing 1)	-1.33	migration z between -2 and 2; enough cells	5614	inactive
MAEA (macrophage erythroblast attacher, E3 ubiquitin ligase)	-0.34	migration z between -2 and 2; enough cells	5460	inactive
USF3 (upstream transcription factor family member 3)	0.88	migration z between -2 and 2; enough cells	5186	inactive
ELL (elongation factor for RNA polymerase II)	0.58	migration z between -2 and 2; enough cells	4776	inactive
PDCD1LG2 (programmed cell death 1 ligand 2)	-0.12	migration z between -2 and 2; enough cells	5743	inactive
FMO1 (flavin containing dimethylaniline monoxygenase 1)	-0.21	migration z between -2 and 2; enough cells	7292	inactive
PRODH (proline dehydrogenase 1)	-0.44	migration z between -2 and 2; enough cells	4277	inactive
NF2 (NF2, moesin-ezrin-radixin like (MERLIN) tumor suppressor)	-0.4	migration z between -2 and 2; enough cells	4931	inactive
CFAP77 (cilia and flagella associated protein 77)	-1.02	migration z between -2 and 2; enough cells	5780	inactive
C10orf120 (chromosome 10 open reading frame 120)	1.29	migration z between -2 and 2; enough cells	5932	inactive
AOC1 (amine oxidase copper containing 1)	-1.14	migration z between -2 and 2; enough cells	3943	inactive
SOX15 (SRY-box transcription factor 15)	-0.11	migration z between -2 and 2; enough cells	5104	inactive
SLC6A18	0.17	migration z between -2 and 2; enough cells	6372	inactive
OR51L1 (olfactory receptor family 51 subfamily L member 1)	-1.42	migration z between -2 and 2; enough cells	5904	inactive
HRK (harakiri, BCL2 interacting protein)	0.17	migration z between -2 and 2; enough cells	5800	inactive
SPAM1 (sperm adhesion molecule 1)	-0.57	migration z between -2 and 2; enough cells	3858	inactive
LRAT (lecithin retinol acyltransferase)	-0.11	migration z between -2 and 2; enough cells	4586	inactive
FIGNL2 (fidgetin like 2)	0.31	migration z between -2 and 2; enough cells	4362	inactive
MED9 (mediator complex subunit 9)	-1.87	under 3300 nuclei; migration not judged	2581	inactive
H2AB1 (H2A.B variant histone 1)	-0.22	migration z between -2 and 2; enough cells	5528	inactive
VASH1 (vasohibin 1)	0.42	migration z between -2 and 2; enough cells	6512	inactive
EVA1B (eva-1 homolog B)	-4.04	migration z below -2; enough cells	6370	active
DNAJC22 (DnaJ heat shock protein family (Hsp40) member C22)	1.13	migration z between -2 and 2; enough cells	5546	inactive
AK2 (adenylate kinase 2)	-1.14	migration z between -2 and 2; enough cells	4296	inactive
BDH2 (3-hydroxybutyrate dehydrogenase 2)	-2.6	migration z below -2; enough cells	3850	active
RIOX1 (ribosomal oxygenase 1)	0.9	migration z between -2 and 2; enough cells	5222	inactive
SLC31A1	-2.18	migration z below -2; enough cells	4162	active
RILP (Rab interacting lysosomal protein)	-0.4	migration z between -2 and 2; enough cells	5404	inactive
ENTPD3 (ectonucleoside triphosphate diphosphohydrolase 3)	-1.43	migration z between -2 and 2; enough cells	5176	inactive

A portion of the results above, for reference:
gene symbol	migration robust z-score	migration class with cell-count check	nuclei per well, duplicate mean	outcome
PDCD1LG2 (programmed cell death 1 ligand 2)	-0.12	migration z between -2 and 2; enough cells	5743	inactive
FMO1 (flavin containing dimethylaniline monoxygenase 1)	-0.21	migration z between -2 and 2; enough cells	7292	inactive
PRODH (proline dehydrogenase 1)	-0.44	migration z between -2 and 2; enough cells	4277	inactive

The list goes on.
gene symbol	migration robust z-score	migration class with cell-count check	nuclei per well, duplicate mean	outcome
PIP4P1 (phosphatidylinositol-4,5-bisphosphate 4-phosphatase 1)	-1.82	migration z between -2 and 2; enough cells	5844	inactive
ZNF384 (zinc finger protein 384)	-0.52	migration z between -2 and 2; enough cells	5900	inactive
MCF2 (MCF.2 cell line derived transforming sequence)	1.38	migration z between -2 and 2; enough cells	5840	inactive
HPN (hepsin)	0.44	migration z between -2 and 2; enough cells	5703	inactive
VPS9D1 (VPS9 domain containing 1)	0.94	migration z between -2 and 2; enough cells	5116	inactive
ARHGAP9 (Rho GTPase activating protein 9)	-0.82	migration z between -2 and 2; enough cells	6010	inactive
RAD9A (RAD9 checkpoint clamp component A)	0.05	migration z between -2 and 2; enough cells	5742	inactive
BMPR1A (bone morphogenetic protein receptor type 1A)	1.43	migration z between -2 and 2; enough cells	6083	inactive
ABHD11 (abhydrolase domain containing 11)	-0.6	migration z between -2 and 2; enough cells	5722	inactive
LSM8 (LSM8 homolog, U6 small nuclear RNA associated)	0.8	migration z between -2 and 2; enough cells	5800	inactive
HELLS (helicase, lymphoid specific)	-0.02	migration z between -2 and 2; enough cells	5327	inactive
S100Z (S100 calcium binding protein Z)	1.36	migration z between -2 and 2; enough cells	5384	inactive
GAB2 (GRB2 associated binding protein 2)	1.22	under 3300 nuclei; migration not judged	2644	inactive
PPIP5K1 (diphosphoinositol pentakisphosphate kinase 1)	0.42	migration z between -2 and 2; enough cells	6799	inactive
EPHA5 (EPH receptor A5)	0.46	migration z between -2 and 2; enough cells	7398	inactive
SPACA5 (sperm acrosome associated 5)	-1.39	migration z between -2 and 2; enough cells	4356	inactive
KLHL2 (kelch like family member 2)	-0.55	migration z between -2 and 2; enough cells	5096	inactive
PCSK4 (proprotein convertase subtilisin/kexin type 4)	1.06	migration z between -2 and 2; enough cells	5724	inactive
LDHAL6A (lactate dehydrogenase A like 6A)	-0.16	migration z between -2 and 2; enough cells	7632	inactive
RMND1 (required for meiotic nuclear division 1 homolog)	-0.36	migration z between -2 and 2; enough cells	5687	inactive
PPM1J (protein phosphatase, Mg2+/Mn2+ dependent 1J)	-0.31	migration z between -2 and 2; enough cells	4860	inactive
LPCAT1 (lysophosphatidylcholine acyltransferase 1)	0.26	migration z between -2 and 2; enough cells	6295	inactive
PFDN6 (prefoldin subunit 6)	-1.21	migration z between -2 and 2; enough cells	6166	inactive
MTHFD2	-1.03	migration z between -2 and 2; enough cells	6130	inactive
PRPF31 (pre-mRNA processing factor 31)	1.33	migration z between -2 and 2; enough cells	5536	inactive
SPACA9 (sperm acrosome associated 9)	1.21	migration z between -2 and 2; enough cells	5702	inactive
CD180 (CD180 molecule)	-0.29	migration z between -2 and 2; enough cells	6820	inactive
ARGFX (arginine-fifty homeobox)	-0.42	migration z between -2 and 2; enough cells	4976	inactive
TIGD5 (tigger transposable element derived 5)	-0.84	migration z between -2 and 2; enough cells	5638	inactive
R3HCC1L (R3H domain and coiled-coil containing 1 like)	-0.37	migration z between -2 and 2; enough cells	5766	inactive
FAM114A1 (family with sequence similarity 114 member A1)	-0.84	migration z between -2 and 2; enough cells	3410	inactive
HNRNPC (heterogeneous nuclear ribonucleoprotein C)	-1	migration z between -2 and 2; enough cells	4807	inactive
KLF1 (KLF transcription factor 1)	-0.34	migration z between -2 and 2; enough cells	4778	inactive
CINP (cyclin dependent kinase 2 interacting protein)	0.79	migration z between -2 and 2; enough cells	6134	inactive
PIGL (phosphatidylinositol glycan anchor biosynthesis class L)	-0.42	migration z between -2 and 2; enough cells	4295	inactive
PPP2R2B (protein phosphatase 2 regulatory subunit Bbeta)	0.08	migration z between -2 and 2; enough cells	6503	inactive
AHCYL2 (adenosylhomocysteinase like 2)	-0.28	migration z between -2 and 2; enough cells	5997	inactive
GPAM (glycerol-3-phosphate acyltransferase, mitochondrial)	-1.09	migration z between -2 and 2; enough cells	4048	inactive
SRARP (steroid receptor associated and regulated protein)	0.95	migration z between -2 and 2; enough cells	6276	inactive
PLIN1 (perilipin 1)	-0.13	migration z between -2 and 2; enough cells	5740	inactive
PRSS33 (serine protease 33)	0.36	migration z between -2 and 2; enough cells	5955	inactive
